This test concerns the target somatostatin receptor 2 (rat (endogenous in rat brain sections)) (UniProt P30680). Briefly: proximity ligation; in situ PLA on free-floating formalin fixed rat brain sections (35 um, Bregma +1.0 mm), claustrum and dorsal endopiriform nucleus; mouse anti-KOR and rabbit anti-SSTR2 primary antibodies, Duolink probes, confocal microscopy.

Amino acid sequences for entries named in this document (tags omitted).
UniProt P30680: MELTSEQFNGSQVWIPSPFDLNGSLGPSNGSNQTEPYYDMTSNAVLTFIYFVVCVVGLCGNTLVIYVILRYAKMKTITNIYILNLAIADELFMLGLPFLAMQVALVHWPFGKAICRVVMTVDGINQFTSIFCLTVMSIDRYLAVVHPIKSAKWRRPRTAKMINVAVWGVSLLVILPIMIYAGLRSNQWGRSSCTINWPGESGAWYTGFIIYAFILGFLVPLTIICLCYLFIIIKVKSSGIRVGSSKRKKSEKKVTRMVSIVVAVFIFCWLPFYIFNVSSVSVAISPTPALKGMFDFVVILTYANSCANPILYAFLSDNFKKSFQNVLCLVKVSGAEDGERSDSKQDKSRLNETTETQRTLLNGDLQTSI
UniProt P34975: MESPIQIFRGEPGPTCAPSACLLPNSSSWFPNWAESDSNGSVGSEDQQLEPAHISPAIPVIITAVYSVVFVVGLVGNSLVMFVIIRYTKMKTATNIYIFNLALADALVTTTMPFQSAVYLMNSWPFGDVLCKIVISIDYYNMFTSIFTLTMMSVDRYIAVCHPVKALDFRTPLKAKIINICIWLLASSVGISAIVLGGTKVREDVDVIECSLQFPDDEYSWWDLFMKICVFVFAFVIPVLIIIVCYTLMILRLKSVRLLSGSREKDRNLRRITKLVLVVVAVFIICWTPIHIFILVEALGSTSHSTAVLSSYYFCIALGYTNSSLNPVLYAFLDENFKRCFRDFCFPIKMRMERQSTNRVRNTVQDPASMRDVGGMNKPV

These are yes or no findings as the source states them, for the method shown. In cells and extracts the contact can be indirect. Some binding calls cover weakened binding; strength is not graded here.

For “kappa opioid receptor (from UniProt P34975 1-380)”, the binding entry was “binds”.

Values taken from PMC6942600.
